Experimental data from article PMC5043270.
No constants are given. Whether binding was seen depends on the method and setting. Binding seen in cells or lysates may run through a third protein. Some results given as binding are weak or reduced against the parent protein; the word gives no strength.

Chains of the proteins cited; added tags and fusions are not shown.
UniProt Q9NTJ3: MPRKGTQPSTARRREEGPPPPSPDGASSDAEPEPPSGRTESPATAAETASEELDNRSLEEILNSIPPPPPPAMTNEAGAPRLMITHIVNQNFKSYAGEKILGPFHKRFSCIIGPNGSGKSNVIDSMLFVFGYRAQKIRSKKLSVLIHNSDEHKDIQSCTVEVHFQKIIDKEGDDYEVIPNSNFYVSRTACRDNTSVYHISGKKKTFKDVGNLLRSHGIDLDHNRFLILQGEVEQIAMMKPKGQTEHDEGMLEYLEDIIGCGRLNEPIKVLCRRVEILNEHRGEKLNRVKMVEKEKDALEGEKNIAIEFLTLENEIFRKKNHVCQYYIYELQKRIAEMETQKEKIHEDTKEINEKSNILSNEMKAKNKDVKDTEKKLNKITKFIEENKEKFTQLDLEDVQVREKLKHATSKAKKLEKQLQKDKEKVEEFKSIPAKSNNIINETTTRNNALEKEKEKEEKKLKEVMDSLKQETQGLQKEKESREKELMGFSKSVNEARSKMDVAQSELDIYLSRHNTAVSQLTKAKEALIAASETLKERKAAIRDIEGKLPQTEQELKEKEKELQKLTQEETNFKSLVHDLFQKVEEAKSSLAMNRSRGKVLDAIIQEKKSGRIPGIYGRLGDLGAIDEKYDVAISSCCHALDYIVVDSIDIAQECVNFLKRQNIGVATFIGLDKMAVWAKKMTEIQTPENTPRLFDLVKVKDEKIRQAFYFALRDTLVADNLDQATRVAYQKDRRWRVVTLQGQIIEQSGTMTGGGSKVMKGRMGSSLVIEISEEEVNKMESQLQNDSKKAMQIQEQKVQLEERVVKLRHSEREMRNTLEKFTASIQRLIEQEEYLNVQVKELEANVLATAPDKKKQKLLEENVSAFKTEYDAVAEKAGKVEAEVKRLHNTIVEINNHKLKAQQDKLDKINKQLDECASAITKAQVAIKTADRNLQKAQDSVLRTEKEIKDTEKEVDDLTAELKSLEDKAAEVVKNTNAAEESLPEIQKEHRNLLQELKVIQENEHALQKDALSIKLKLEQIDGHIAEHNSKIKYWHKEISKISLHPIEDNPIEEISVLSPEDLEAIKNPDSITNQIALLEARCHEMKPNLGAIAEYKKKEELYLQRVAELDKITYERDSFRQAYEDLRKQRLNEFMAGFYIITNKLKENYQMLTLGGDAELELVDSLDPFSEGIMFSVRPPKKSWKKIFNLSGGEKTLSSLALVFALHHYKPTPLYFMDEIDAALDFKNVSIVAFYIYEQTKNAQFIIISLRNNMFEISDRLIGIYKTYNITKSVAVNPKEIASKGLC

Biological target: Structural maintenance of chromosome 4 (human (endogenous in A549)) (UniProt Q9NTJ3)
Test: co-IP; nuclear extracts of A549 cells (NE-PER), pre-cleared; immunoprecipitated with anti-SMC4 or (reciprocal) anti-DDX46 antibody and Protein A/G PLUS Agarose overnight at 4 °C; washed with 1xTBS; Western blot; normal rabbit IgG as negative control

B1: DEAD-box helicase 46 (protein, UniProt Q7L014 1-1031)
chain: MGRESRHYRKRSASRGRSGSRSRSRSPSDKRSKRGDDRRSRSRDRDRRRERSRSRDKRRSRSRDRKRLRRSRSRERDRSRERRRSRSRDRRRSRSRSRGRRSRSSSPGNKSKKTENRSRSKEKTDGGESSKEKKKDKDDKEDEKEKDAGNFDQNKLEEEMRKRKERVEKWREEQRKKAMENIGELKKEIEEMKQGKKWSLEDDDDDEDDPAEAEKEGNEMEGEELDPLDAYMEEVKEEVKKFNMRSVKGGGGNEKKSGPTVTKVVTVVTTKKAVVDSDKKKGELMENDQDAMEYSSEEEEVDLQTALTGYQTKQRKLLEPVDHGKIEYEPFRKNFYVEVPELAKMSQEEVNVFRLEMEGITVKGKGCPKPIKSWVQCGISMKILNSLKKHGYEKPTPIQTQAIPAIMSGRDLIGIAKTGSGKTIAFLLPMFRHIMDQRSLEEGEGPIAVIMTPTRELALQITKECKKFSKTLGLRVVCVYGGTGISEQIAELKRGAEIIVCTPGRMIDMLAANSGRVTNLRRVTYVVLDEADRMFDMGFEPQVMRIVDNVRPDRQTVMFSATFPRAMEALARRILSKPIEVQVGGRSVVCSDVEQQVIVIEEEKKFLKLLELLGHYQESGSVIIFVDKQEHADGLLKDLMRASYPCMSLHGGIDQYDRDSIINDFKNGTCKLLVATSVAARGLDVKHLILVVNYSCPNHYEDYVHRAGRTGRAGNKGYAYTFITEDQARYAGDIIKALELSGTAVPPDLEKLWSDFKDQQKAEGKIIKKSSGFSGKGFKFDETEQALANERKKLQKAALGLQDSDDEDAAVDIDEQIESMFNSKKRVKDMAAPGTSSVPAPTAGNAEKLEIAKRLALRINAQKNLGIESQDVMQQATNAILRGGTILAPTVSAKTIAEQLAEKINAKLNYVPLEKQEEERQDGGQNESFKRYEEELEINDFPQTARWKVTSKEALQRISEYSEAAITIRGTYFPPGKEPKEGERKIYLAIESANELAVQKAKAEITRLIKEELIRLQNSYQPTNKGRYKVL
binding: binds
